Source: PMC6703430, “Combining Mutations That Inhibit Two Distinct Steps of the ATP Hydrolysis Cycle Restores Wild-Type Function in the Lipopolysaccharide Transporter and Shows that ATP Binding Triggers Transport” (mBio, 2019)
No constants are given. Whether binding was seen depends on the method and setting. In cells and extracts the contact can be indirect. A result given as binding can be weak or reduced; the word gives no strength.

The chains behind the UniProt entries cited, without tags or fusion partners. Where a name states a change or a piece, a line headed by the entry shows the natural chain unless it says otherwise.
UniProt P0ADV9: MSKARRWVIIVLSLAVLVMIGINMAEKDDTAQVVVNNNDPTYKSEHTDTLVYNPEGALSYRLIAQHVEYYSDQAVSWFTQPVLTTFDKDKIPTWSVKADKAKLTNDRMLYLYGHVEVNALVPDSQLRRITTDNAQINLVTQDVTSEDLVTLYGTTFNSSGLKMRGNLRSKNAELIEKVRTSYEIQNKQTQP
UniProt P0AF98: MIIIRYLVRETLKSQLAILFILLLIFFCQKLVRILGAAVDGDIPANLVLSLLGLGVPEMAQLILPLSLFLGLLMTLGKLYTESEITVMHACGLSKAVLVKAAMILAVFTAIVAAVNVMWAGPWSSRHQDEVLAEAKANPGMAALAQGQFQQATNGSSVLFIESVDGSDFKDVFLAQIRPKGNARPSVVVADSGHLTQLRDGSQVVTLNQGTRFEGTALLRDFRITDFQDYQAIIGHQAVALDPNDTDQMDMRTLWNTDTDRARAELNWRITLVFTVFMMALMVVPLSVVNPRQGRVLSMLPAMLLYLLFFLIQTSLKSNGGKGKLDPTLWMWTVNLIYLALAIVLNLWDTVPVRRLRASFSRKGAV
UniProt P0ADC6: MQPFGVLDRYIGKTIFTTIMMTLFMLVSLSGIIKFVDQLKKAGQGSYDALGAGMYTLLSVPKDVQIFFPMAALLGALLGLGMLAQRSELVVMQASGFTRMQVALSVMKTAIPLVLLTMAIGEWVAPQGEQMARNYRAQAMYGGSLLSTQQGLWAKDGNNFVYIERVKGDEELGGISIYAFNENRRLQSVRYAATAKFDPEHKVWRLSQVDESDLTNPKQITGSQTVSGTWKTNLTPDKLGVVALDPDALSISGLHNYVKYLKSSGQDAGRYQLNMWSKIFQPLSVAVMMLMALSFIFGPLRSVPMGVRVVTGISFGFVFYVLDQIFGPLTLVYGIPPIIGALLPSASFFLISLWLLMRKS

Columns and labels:
Assay in all cases: co-purification (Ni-NTA affinity, then SEC); LptB (wild type or mutant), LptF and LptG co-expressed with LptC-His7 in E. coli BL21(λDE3); membranes solubilised in 1% DDM with 2 mM ATP; complex captured on Ni-NTA by LptC-His7, eluted with 200 mM imidazole, then Superdex 200 increase in 0.005% LMNG
LptC-His7 (E. coli) = LptC-His7 (E. coli) (UniProt P0ADV9)
LptF (E. coli) = LptF (E. coli) (UniProt P0AF98)
LptG (E. coli) = LptG (E. coli) (UniProt P0ADC6)

Binder | binding (LptC-His7 (E. coli)) | binding (LptF (E. coli)) | binding (LptG (E. coli))
LptB^R144H (enzyme, UniProt P0A9V1 1-241) MATLTAKNLAKAYKGRRVVEDVSLTVNSGEIVGLLGPNGAGKTTTFYMVVGIVPRDAGNIIIDDDDISLLPLHARARRGIGYLPQEASIFRRLSVYDNLMAVLQIRDDLSAEQREDRANELMEEFHIEHLRDSMGQSLSGGERHRVEIARALAANPKFILLDEPFAGVDPISVIDIKRIIEHLRDSGLGVLITDHNVRETLAVCERAYIVSQGHLIAHGTPTEILQDEHVKRVYLGEDFRL | binds | binds | binds
LptB^WT (enzyme, UniProt P0A9V1 1-241) MATLTAKNLAKAYKGRRVVEDVSLTVNSGEIVGLLGPNGAGKTTTFYMVVGIVPRDAGNIIIDDDDISLLPLHARARRGIGYLPQEASIFRRLSVYDNLMAVLQIRDDLSAEQREDRANELMEEFHIEHLRDSMGQSLSGGERRRVEIARALAANPKFILLDEPFAGVDPISVIDIKRIIEHLRDSGLGVLITDHNVRETLAVCERAYIVSQGHLIAHGTPTEILQDEHVKRVYLGEDFRL | binds | binds | binds

The remaining lines, values ahead:

binding (LptC-His7 (E. coli)) | binding (LptF (E. coli)) | binding (LptG (E. coli)) | Binder
binds | binds | binds | LptB^F239A (enzyme, UniProt P0A9V1 1-241) MATLTAKNLAKAYKGRRVVEDVSLTVNSGEIVGLLGPNGAGKTTTFYMVVGIVPRDAGNIIIDDDDISLLPLHARARRGIGYLPQEASIFRRLSVYDNLMAVLQIRDDLSAEQREDRANELMEEFHIEHLRDSMGQSLSGGERRRVEIARALAANPKFILLDEPFAGVDPISVIDIKRIIEHLRDSGLGVLITDHNVRETLAVCERAYIVSQGHLIAHGTPTEILQDEHVKRVYLGEDARL
binds | binds | binds | LptB^R144H/F239A (enzyme, UniProt P0A9V1 1-241) MATLTAKNLAKAYKGRRVVEDVSLTVNSGEIVGLLGPNGAGKTTTFYMVVGIVPRDAGNIIIDDDDISLLPLHARARRGIGYLPQEASIFRRLSVYDNLMAVLQIRDDLSAEQREDRANELMEEFHIEHLRDSMGQSLSGGERHRVEIARALAANPKFILLDEPFAGVDPISVIDIKRIIEHLRDSGLGVLITDHNVRETLAVCERAYIVSQGHLIAHGTPTEILQDEHVKRVYLGEDARL
binds | binds | binds | His8-LptB^E163Q (enzyme, E. coli, UniProt P0A9V1 1-241, looked up, catalytically dead E163Q variant; the CTD is fully resolved up to L241, the last residue of LptB; A TEV protease cleavage site stands between the His8 tag and LptB; no TEV cleavage is described; also called His8TEV-LptB(E163Q); His-LptB(E163Q); source: E. coli KRX, pET28b(+)-His8TEV-LptB(E163Q), purified (Ni-NTA, gel filtration on Superdex 200); not shown: His8, N-terminal, kept) MATLTAKNLAKAYKGRRVVEDVSLTVNSGEIVGLLGPNGAGKTTTFYMVVGIVPRDAGNIIIDDDDISLLPLHARARRGIGYLPQEASIFRRLSVYDNLMAVLQIRDDLSAEQREDRANELMEEFHIEHLRDSMGQSLSGGERRRVEIARALAANPKFILLDQPFAGVDPISVIDIKRIIEHLRDSGLGVLITDHNVRETLAVCERAYIVSQGHLIAHGTPTEILQDEHVKRVYLGEDFRL
